Test results: paper PMC11447182
These are yes or no findings as the source states them, for the method shown. Binding seen in cells or lysates may run through a third protein. Some entries that bind do so weakly or less than the wild type.

Molecular target: HJURP (Holliday Junction Recognition Protein) (UniProt Q8NCD3)
Assay: co-IP; IP of HJURP from breast cancer cell lines, SLC7A11 and FTH1 detected by Western blot

**Q.** For “FTH1 (Ferritin Heavy Chain 1) (from UniProt P02794 1-183)”, which binding is on record?
**A.** Its binding is “binds”.
